Shown are results outside the selection of targets with a hit, which stands elsewhere. This is a noisy data set. The entries are a selection whose mix differs from that of the whole data set.

By UniProt entry, the sequences of proteins in these tests, tags left out. Where a name states a change or a piece, a line headed by the entry shows the natural chain unless it says otherwise.
UniProt Q9UM47, whole entry: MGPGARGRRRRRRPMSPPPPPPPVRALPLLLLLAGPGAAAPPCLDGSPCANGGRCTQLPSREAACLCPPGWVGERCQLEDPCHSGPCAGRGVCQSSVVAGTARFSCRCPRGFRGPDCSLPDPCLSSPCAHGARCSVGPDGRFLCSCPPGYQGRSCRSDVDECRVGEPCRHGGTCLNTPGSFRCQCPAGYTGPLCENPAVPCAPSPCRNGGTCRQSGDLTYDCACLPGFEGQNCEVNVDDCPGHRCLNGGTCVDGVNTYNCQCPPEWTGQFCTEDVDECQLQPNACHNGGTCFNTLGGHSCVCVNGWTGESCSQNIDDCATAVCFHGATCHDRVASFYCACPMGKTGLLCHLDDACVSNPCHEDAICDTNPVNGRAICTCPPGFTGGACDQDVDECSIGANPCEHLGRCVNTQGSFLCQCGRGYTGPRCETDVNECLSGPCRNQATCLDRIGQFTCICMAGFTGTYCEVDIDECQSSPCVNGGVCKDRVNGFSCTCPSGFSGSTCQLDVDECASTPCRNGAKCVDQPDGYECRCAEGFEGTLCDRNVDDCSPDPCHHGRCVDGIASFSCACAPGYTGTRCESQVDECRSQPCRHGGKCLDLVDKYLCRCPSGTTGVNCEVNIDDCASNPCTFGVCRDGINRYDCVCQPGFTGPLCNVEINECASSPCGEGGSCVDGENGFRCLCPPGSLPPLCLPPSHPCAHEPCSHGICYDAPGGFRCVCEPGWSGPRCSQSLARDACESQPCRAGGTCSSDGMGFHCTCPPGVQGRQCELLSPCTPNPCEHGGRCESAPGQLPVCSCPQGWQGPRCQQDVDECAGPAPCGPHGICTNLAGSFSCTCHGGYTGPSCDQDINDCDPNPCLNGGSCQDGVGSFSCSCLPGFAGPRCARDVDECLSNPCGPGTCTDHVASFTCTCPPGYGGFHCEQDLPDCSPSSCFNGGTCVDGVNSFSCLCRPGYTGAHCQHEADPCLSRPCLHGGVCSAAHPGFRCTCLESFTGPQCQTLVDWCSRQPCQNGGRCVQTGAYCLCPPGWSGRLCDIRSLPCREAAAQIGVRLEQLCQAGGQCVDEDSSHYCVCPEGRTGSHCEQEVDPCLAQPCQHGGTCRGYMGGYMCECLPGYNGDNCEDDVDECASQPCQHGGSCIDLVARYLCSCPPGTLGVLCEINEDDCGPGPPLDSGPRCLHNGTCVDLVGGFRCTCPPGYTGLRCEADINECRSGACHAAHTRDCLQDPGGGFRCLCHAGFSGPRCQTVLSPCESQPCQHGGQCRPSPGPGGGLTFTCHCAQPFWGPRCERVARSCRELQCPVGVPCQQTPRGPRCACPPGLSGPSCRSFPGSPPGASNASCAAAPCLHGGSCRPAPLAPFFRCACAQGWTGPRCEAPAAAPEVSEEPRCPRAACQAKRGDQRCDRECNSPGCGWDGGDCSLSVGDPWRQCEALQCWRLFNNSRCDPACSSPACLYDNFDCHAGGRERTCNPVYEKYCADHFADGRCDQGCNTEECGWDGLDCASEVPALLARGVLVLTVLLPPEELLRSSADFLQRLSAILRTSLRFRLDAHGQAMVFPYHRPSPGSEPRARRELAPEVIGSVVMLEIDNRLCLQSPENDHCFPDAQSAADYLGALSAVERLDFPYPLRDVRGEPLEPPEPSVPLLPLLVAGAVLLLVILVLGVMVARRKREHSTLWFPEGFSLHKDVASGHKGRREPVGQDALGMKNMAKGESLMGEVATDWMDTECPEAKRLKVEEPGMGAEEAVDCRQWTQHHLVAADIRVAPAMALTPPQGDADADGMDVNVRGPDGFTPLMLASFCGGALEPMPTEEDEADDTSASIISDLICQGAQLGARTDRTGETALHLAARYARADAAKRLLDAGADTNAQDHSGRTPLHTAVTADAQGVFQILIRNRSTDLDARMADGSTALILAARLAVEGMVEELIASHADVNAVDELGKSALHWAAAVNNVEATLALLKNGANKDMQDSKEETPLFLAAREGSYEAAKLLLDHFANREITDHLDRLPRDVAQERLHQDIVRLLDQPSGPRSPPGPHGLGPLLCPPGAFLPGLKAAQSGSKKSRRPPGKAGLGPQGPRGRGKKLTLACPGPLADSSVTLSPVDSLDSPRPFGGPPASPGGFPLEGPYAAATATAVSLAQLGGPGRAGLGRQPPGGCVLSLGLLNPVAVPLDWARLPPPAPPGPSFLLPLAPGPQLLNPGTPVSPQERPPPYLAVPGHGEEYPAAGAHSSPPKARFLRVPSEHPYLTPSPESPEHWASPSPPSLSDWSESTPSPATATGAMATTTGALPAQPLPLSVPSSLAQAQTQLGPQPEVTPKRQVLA
UniProt Q9ULT8: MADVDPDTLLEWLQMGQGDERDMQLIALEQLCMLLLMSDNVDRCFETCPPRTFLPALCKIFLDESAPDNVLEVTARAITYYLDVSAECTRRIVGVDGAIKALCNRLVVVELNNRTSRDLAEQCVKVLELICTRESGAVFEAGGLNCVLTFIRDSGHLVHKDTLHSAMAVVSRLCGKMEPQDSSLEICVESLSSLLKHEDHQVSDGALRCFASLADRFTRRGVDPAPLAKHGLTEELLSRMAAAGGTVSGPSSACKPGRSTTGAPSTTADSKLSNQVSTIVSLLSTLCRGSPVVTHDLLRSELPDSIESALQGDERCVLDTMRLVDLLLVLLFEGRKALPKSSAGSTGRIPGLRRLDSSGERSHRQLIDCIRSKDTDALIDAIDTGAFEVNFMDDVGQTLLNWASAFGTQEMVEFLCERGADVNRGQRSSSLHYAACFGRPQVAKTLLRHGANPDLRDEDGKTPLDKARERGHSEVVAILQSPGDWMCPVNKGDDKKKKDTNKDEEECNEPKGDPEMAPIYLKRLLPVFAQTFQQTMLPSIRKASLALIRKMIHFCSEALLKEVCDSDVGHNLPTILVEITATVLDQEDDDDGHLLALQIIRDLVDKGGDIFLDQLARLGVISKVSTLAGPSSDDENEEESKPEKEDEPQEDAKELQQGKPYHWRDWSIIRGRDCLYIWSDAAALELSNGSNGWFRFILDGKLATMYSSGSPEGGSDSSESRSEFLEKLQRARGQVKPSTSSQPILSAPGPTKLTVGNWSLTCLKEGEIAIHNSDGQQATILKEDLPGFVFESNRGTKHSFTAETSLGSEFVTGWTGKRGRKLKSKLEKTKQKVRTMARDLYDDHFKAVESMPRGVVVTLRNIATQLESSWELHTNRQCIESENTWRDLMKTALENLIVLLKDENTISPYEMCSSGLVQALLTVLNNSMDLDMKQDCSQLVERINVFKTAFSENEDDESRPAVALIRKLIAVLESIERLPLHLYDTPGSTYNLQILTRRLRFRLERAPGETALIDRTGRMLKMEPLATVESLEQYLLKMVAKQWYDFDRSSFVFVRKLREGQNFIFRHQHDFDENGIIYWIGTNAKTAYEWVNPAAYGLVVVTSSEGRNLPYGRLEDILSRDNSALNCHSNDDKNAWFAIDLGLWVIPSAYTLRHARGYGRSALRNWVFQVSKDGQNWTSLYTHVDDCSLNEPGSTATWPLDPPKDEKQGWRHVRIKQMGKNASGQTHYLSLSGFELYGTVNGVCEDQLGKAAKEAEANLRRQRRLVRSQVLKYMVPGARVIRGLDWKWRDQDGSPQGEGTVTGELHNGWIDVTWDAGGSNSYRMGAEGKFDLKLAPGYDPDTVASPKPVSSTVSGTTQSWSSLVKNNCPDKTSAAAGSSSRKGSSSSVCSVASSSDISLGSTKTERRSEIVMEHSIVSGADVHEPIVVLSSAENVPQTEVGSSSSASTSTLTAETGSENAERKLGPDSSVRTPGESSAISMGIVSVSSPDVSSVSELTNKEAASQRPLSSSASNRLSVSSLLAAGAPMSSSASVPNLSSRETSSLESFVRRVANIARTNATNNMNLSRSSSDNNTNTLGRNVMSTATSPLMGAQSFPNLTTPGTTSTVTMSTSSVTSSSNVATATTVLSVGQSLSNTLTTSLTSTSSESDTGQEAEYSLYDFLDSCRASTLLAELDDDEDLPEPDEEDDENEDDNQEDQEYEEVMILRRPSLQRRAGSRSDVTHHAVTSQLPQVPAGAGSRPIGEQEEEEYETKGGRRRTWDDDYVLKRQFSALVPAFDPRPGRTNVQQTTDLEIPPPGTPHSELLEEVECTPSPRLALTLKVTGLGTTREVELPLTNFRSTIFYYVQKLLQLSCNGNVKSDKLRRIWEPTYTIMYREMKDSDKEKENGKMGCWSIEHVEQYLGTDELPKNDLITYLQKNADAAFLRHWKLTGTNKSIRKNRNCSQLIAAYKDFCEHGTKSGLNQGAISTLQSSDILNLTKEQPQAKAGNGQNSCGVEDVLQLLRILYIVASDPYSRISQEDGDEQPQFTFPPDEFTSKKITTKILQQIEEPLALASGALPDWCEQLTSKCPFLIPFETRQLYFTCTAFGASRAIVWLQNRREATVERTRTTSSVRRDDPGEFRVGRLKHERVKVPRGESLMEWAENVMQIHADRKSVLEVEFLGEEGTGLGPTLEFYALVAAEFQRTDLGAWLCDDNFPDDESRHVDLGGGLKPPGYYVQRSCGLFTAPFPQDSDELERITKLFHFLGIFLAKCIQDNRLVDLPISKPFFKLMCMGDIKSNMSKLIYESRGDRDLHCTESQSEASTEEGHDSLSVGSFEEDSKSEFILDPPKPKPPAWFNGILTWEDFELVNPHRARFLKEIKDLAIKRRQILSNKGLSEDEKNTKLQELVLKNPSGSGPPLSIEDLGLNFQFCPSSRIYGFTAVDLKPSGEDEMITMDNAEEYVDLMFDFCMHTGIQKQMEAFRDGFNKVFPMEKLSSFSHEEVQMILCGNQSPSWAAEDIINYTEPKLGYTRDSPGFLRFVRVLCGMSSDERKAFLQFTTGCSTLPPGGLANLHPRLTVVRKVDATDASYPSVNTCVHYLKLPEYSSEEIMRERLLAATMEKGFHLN
UniProt Q9Y2D4: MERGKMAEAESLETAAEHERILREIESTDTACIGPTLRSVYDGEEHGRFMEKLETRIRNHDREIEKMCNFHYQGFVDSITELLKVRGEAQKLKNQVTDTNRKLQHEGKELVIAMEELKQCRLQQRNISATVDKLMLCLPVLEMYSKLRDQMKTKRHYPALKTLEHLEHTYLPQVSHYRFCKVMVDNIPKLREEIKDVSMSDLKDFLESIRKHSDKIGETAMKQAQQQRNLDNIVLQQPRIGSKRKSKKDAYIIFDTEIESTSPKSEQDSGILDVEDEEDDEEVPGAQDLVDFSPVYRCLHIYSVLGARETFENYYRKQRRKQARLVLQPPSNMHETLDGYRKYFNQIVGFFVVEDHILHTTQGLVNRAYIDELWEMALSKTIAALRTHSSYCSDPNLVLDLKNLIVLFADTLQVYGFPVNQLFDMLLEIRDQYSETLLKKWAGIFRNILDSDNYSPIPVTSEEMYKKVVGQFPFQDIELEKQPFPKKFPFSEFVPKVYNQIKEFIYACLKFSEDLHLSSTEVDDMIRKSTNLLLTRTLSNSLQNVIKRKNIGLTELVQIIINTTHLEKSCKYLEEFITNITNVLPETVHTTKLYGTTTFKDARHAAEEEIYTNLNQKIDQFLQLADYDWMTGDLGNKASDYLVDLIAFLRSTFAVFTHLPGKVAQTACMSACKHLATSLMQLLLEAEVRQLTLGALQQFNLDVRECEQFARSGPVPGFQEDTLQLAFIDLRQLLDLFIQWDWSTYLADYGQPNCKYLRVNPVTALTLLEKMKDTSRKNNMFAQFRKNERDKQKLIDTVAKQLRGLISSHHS
UniProt Q9UHI6: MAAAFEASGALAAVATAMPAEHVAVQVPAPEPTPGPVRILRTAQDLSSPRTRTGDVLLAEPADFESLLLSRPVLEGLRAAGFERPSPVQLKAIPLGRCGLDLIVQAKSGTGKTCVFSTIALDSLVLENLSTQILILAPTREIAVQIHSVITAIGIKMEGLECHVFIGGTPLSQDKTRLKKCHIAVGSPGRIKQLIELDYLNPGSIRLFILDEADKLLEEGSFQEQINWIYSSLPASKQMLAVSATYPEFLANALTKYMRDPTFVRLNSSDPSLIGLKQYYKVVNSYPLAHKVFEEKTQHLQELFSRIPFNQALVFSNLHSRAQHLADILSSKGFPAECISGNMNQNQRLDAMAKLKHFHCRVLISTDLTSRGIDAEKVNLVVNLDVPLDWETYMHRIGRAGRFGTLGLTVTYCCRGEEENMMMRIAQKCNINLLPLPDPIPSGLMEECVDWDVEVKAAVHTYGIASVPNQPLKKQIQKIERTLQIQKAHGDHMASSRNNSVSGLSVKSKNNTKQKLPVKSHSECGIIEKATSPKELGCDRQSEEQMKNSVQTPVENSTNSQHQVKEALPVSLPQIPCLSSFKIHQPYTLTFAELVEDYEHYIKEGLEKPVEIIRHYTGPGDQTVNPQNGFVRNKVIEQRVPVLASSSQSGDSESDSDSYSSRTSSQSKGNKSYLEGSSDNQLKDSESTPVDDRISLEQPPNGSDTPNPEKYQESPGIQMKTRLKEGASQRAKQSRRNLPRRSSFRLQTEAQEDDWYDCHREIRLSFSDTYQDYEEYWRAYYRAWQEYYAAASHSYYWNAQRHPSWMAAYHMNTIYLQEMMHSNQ

Compound in this assay: COC(=O)/C=C/c1ccccc1 [methyl cinnamate]
Put plainly: log2 ratio of iodoacetamide-alkyne labeling of the cysteine site, DMSO over compound (competition); higher = stronger covalent engagement of the cysteine by the compound, active = 1 or more. The settings on record: 500 µM; treatment time 1 h; system: HEK293T cell lysate. Put shortly: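 HEK293T lysate at 2 mg/mL was treated with vehicle or electrophile (500 µM) for 1 h at ambient temperature, then labelled with iodoacetamide alkyne (1 h), clicked to sCIP-TMT reagents, pooled, digested with trypsin overnight at 37 °C, enriched on streptavidin and eluted with acid. Peptides were analysed by Orbitrap Eclipse LC-MS/MS with FAIMS and quantified in FragPipe, using duplicate channels and three replicates, with cysteines quantified in only one replicate excluded. The log2 competition ratio for each cysteine is the mean control-channel reporter intensity divided by the mean compound-channel reporter intensity.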
Consider TRIM33 C145 (UniProt Q9UPN9), for which the “log2 ratio of iodoacetamide-alkyne labeling” value (“log2 ratio” below) was inactive: 0.309.
Under NISCH C185 (UniProt Q9Y2I1) stands inactive: 0.0924; under MRPS18C C90 (UniProt Q9Y3D5), inactive: -0.0815; under MINPP1 C337 (UniProt Q9UNW1), inactive: 0.59.
Under NOTCH3 C134 (UniProt Q9UM47) stands inactive: 0.0769; under DERA C118 (UniProt Q9Y315), inactive: -0.178; under HECTD1 C369 (UniProt Q9ULT8), inactive: 0.274.
Under ACIN1 C1223 (UniProt Q9UKV3) stands inactive: 0.0534.
As for UniProt Q9Y3I0_C193, the “log2 ratio” value is inactive: 0.129.
To PRR12 C112 (UniProt Q9ULL5) belongs inactive: 0.237; to MYO6 C1236 (UniProt Q9UM54), inactive: 0.201.
Under UniProt Q9Y3B4_C83 stands inactive: 0.0635; under USP22 C189 (UniProt Q9UPT9), inactive: -0.0563; under RWDD3 C17 (UniProt Q9Y3V2), inactive: -0.114.
Under GMEB2 C323 (UniProt Q9UKD1) stands inactive: -0.0237; under SCML2 C324 (UniProt Q9UQR0), inactive: 0.314; under EXOC6B C32 (UniProt Q9Y2D4), inactive: -0.044.
Turning to PRPF19 C5 (UniProt Q9UMS4), the “log2 ratio” value was inactive: 0.298.
To DDX20 C98 (UniProt Q9UHI6) belongs inactive: 0.249.
Under UniProt Q9UPN4_C181 stands inactive: 0.138; under LNPEP C35 (UniProt Q9UIQ6), inactive: -0.117; under RABGEF1 C359 (UniProt Q9UJ41), inactive: 0.125.

For the origin of these results see the supplement of paper PMC11006884.
